In the supplement of paper PMC12823440, “Inhibitors supercharge kinase turnover through native proteolytic circuits” (Nature, 2025):
Where a name gives a salt, the structure may show the parent alone. Some of the results follow. Hit calls seldom repeat between salt and free forms of one compound.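 In K562 cells expressing nanoluciferase-fused kinases, luminescence was recorded at 4 h intervals between 2 and 18 h, normalized as percent of control with DMSO at 100% and a positive control at 0%. A significant (2 sigma) signal drop marks a time point as decreased. The authors' rule for a hit is not shown and takes in more than the number of time points.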

Sequences of proteins named here, by UniProt entry; tags and fusion partners are left off.
UniProt P50750, whole entry: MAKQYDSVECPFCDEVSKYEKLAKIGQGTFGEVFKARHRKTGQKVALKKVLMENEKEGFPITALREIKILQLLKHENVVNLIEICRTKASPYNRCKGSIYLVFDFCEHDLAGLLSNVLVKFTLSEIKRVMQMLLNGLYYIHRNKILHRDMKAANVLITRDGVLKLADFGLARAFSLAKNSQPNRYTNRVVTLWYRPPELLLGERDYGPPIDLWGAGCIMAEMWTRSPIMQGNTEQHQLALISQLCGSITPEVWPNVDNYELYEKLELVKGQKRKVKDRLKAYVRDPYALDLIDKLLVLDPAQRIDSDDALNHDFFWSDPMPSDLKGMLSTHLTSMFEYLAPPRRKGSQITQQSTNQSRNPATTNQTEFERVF

These compounds were tested against CDK9 (UniProt P50750) (assay: number of time points (of 4; 2 h point missing) at which kinase-Nluc abundance scored as decreased, DMSO-normalised (count); higher = more persistent destabilization). Settings: 2.5 µM; K562; 2-18 h.
In the case of `CCN(CC)CCNC(=O)c1c(C)[nH]c(/C=C2\C(=O)Nc3ccc(F)cc32)c1C` [Sunitinib], the “number of time points” value is reported as 0. With `CC1(C)C(=O)N([C@H]2CCc3c(O)cccc32)c2nc(Nc3cccc(CN4CCCC4)c3)ncc21` the “number of time points” value was 2. With `O=C(c1ccc(/C=C/c2n[nH]c3ccccc23)cc1)N1CCNCC1` the “number of time points” value was 0. For `O=C1NCCc2[nH]c(-c3ccncc3)cc21`, the “number of time points” value was 0. `CC(C)n1nc(-c2cc3cc(O)ccc3[nH]2)c2c(N)ncnc21` [Torkinib] was tested, and the “number of time points” value was 0. With `COc1ccc(CNC(=O)Nc2ncc([N+](=O)[O-])s2)cc1` the “number of time points” value was 0. In the case of `CCOc1cc2ncc(C#N)c(Nc3ccc(F)c(Cl)c3)c2cc1NC(=O)/C=C/CN(C)C` [Pelitinib], the “number of time points” value is reported as 0. With `Cc1cc(Nc2cc(N3CCN(C)CC3)nc(/C=C/c3ccccc3)n2)n[nH]1` [ENMD-2076 (Tartrate)] the “number of time points” value was 0. `C=CC(=O)Nc1cc2c(Nc3ccc(F)c(Cl)c3)ncnc2cc1OCCCN1CCOCC1` [Canertinib (dihydrochloride)] was tested, and the “number of time points” value was 0. In the case of `Cc1cc(Nc2cc(N3CCN(C)CC3)nc(/C=C/c3ccccc3)n2)n[nH]1`, the “number of time points” value is reported as 0. For `Cc1cn(-c2cc(NC(=O)c3ccc(C)c(Nc4nccc(-c5cccnc5)n4)c3)cc(C(F)(F)F)c2)cn1` [Nilotinib], the “number of time points” value was 2. For `Cc1nc(Nc2ncc(C(=O)Nc3c(C)cccc3Cl)s2)cc(N2CCN(CCO)CC2)n1` [Dasatinib], the “number of time points” value was 2. In the case of `Cc1cnc(Nc2ccc(OCCN3CCCC3)cc2)nc1Nc1cccc(S(=O)(=O)NC(C)(C)C)c1` [Fedratinib (hydrochloride hydrate)], the “number of time points” value is reported as 0. For `CNC(=O)c1cc(Oc2ccc(NC(=O)Nc3ccc(Cl)c(C(F)(F)F)c3)cc2)ccn1` [Sorafenib], the “number of time points” value was 0. In the case of `O=C(Nc1cccc(Nc2nccc(Nc3cccc(C(F)(F)F)c3)n2)c1)C1CC1` [Aurora kinase inhibitor-3], the “number of time points” value is reported as 0. `CC(=O)c1c(C)c2cnc(Nc3ccc(N4CCN(C(=O)CCCCCC(=O)N[C@H](C(=O)N5C[C@H](O)C[C@H]5C(=O)NCc5ccc(-c6scnc6C)cc5)C(C)(C)C)CC4)cn3)nc2n(C2CCCC2)c1=O` was tested, and the “number of time points” value was 0. With `CN1CCN(c2nc(C3=C(c4c[nH]c5ccccc45)C(=O)NC3=O)c3ccccc3n2)CC1` [Sotrastaurin] the “number of time points” value was 0.

Same assay, conditions: 10 µM; K562; 2-18 h
For `Nc1ncnc2n[nH]c(-c3ccc(Oc4ccccc4)cc3)c12` [Ibrutinib deacryloylpiperidine], the “number of time points” value was 0. `COc1ccc(-c2c[nH]c3nccc(-c4ccsc4)c23)c(OC)c1` was tested, and the “number of time points” value was 0. In the case of `CCCOc1ccc(C=C2SC(=O)NC2=O)cc1`, the “number of time points” value is reported as 0. For `COc1cc2ncnc(Nc3cccc(Br)c3)c2cc1OC`, the “number of time points” value was 0. `CC[C@@H]1C(=O)N(C)c2cnc(Nc3ccc(C(=O)NC4CCN(C)CC4)cc3OC)nc2N1C1CCCC1` was tested, and the “number of time points” value was 1. For `O=S(=O)(c1cccc2c(O)nccc12)N1CCCNCC1` [Hydroxyfasudil], the “number of time points” value was 0. With `CC#CC(=O)N1CCC[C@H]1c1nc(-c2ccc(C(=O)Nc3ccccn3)cc2)c2c(N)nccn12` [Acalabrutinib] the “number of time points” value was 0. For `COc1cc(N2CCN(C)CC2)ccc1Nc1nccc(-c2cn(C)c3cnccc23)n1`, the “number of time points” value was 0. `Cc1ccc(O)cc1Nc1ccnc(Nc2cccc(C(N)=O)c2)n1` [Lck inhibitor 2] was tested, and the “number of time points” value was 0. With `Cc1ccc2c(=O)c3cccc(CC(=O)O)c3oc2c1C` [Vadimezan] the “number of time points” value was 0. In the case of `Cc1ccc(-n2nc(C(C)(C)C)cc2NC(=O)Nc2ccc(OCCN3CCOCC3)c3ccccc23)cc1` [Doramapimod], the “number of time points” value is reported as 0. `CC(C)N(CCC(=O)c1ccc2ccccc2c1)Cc1ccccc1` was tested, and the “number of time points” value was 0. `O=C1Cc2c([nH]c3ccc(Br)cc23)-c2ccccc2N1` [Kenpaullone] was tested, and the “number of time points” value was 0. In the case of `Cc1ccc(Nc2nccc(N(C)c3ccc4c(C)n(C)nc4c3)n2)cc1S(N)(=O)=O` [Pazopanib], the “number of time points” value is reported as 0. For `O=S(=O)(c1cccc2c(O)nccc12)N1CCCNCC1` [Hydroxyfasudil (hydrochloride)], the “number of time points” value was 0. In the case of `C[C@H]1CN(C2COC2)CCN1c1ccc(Nc2cc(-c3ccnc(N4CCn5c(cc6c5CC(C)(C)C6)C4=O)c3CO)cn(C)c2=O)nc1` [Fenebrutinib], the “number of time points” value is reported as 0. `Cc1cc2ncnn2cc1Nc1ncc2c(n1)n(C1CCOCC1)c(=O)n2C` was tested, and the “number of time points” value was 0. With `Cc1cc2c(F)c(Oc3ncnn4cc(OC[C@@H](C)O)c(C)c34)ccc2[nH]1` [Brivanib] the “number of time points” value was 0. With `NCCNc1ncc(C(N)=O)c(Nc2cccc(C(F)(F)F)c2)n1` [Syk Inhibitor II] the “number of time points” value was 0. For `CC(C)[C@@](C)(O)[C@@H]1CN(c2nc(-c3[nH]nc4ncccc34)c(F)cc2Cl)CCN1`, the “number of time points” value was 0. With `CNC(=O)c1cc(Oc2ccc(NC(=O)Nc3ccc(Cl)c(C(F)(F)F)c3)cc2)ccn1` [Sorafenib (Tosylate)] the “number of time points” value was 0. For `Fc1ccc(-c2nc(-c3ccc4ccccc4c3F)[nH]c2-c2ccncc2)cc1`, the “number of time points” value was 3.
